Experimental findings from the supplement of paper PMC10735217 are described below.

Values joined by “and” are separate entries in the source; they are usually repeats but may differ in a detail not shown here. Identical values can stand only once. Counter-ions that a name gives are not always drawn. This is one part of the list. This data set is noisy: repeats of one test often differ as much as different tests do.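 In a drug-repurposing library screen, luminescence reads luciferase driven by eight TEAD-binding elements, stably integrated into human kidney-derived cells. Compounds scoring over five robust Z scores above the plate mean are called hits.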

This assay relates to HEK293A TEAD-LUC reporter. In words: TEAD-luciferase reporter activity (YAP activation), robust Z score vs plate; higher = stronger YAP/TEAD activation. As to conditions: 24 h.

In the case of `CC(=O)CCCCn1c(=O)c2c(ncn2C)n(C)c1=O`, the TEAD-luciferase reporter activity was inactive: 0.341 (compound concentration: 200 nM) and inactive: 1.53 (compound concentration: 10 uM).

For the compound `CC(=O)CCCCn1c(=O)c2c(ncn2C)n(C)c1=O` [Pentoxifylline], where the note is “compound concentration: 2 uM”, the TEAD-luciferase reporter activity was inactive: -0.429.

As for `O=C(Nc1cccc2c(=O)cc(-c3nnn[nH]3)oc12)c1ccc(OCCCCc2ccccc2)cc1` [Pranlukast hydrate], the TEAD-luciferase reporter activity (compound concentration: 2 uM) is inactive: -0.852.

For the compound `O=C(Nc1cccc2c(=O)cc(-c3nnn[nH]3)oc12)c1ccc(OCCCCc2ccccc2)cc1` [pranlukast], the TEAD-luciferase reporter activity is, setting by setting: (compound concentration: 200 nM) inactive: -1.11; (compound concentration: 2 uM) inactive: -1.21; (compound concentration: 10 uM) inactive: 1.87.

`Cc1ccccc1CNC(=O)[C@@H]1N(C(=O)C(O)C(Cc2ccccc2)NC(=O)c2cccc(O)c2C)CSC1(C)C` (some centres not stated): the TEAD-luciferase reporter activity is, setting by setting: (compound concentration: 200 nM) inactive: -1.32; (compound concentration: 2 uM) inactive: -0.846; (compound concentration: 10 uM) inactive: 0.575.

Turning to `CCC(O)COc1ccc2nc(C(=O)Nc3nc4ccc(-c5cc(F)cc(Cl)c5)cc4[nH]3)cn2n1` (configuration not stated), the TEAD-luciferase reporter activity reads like this: (compound concentration: 200 nM) inactive: -0.131 and inactive: -1.1; (compound concentration: 2 uM) inactive: 0.699 and inactive: -0.625; (compound concentration: 10 uM) inactive: -0.684 and inactive: -1.01.

For `CC(C)CC(NC(=O)OCc1ccccc1)C(=O)NC(C(=O)NCC(=O)C=[N+]=[N-])C(C)C` (configuration not stated), the TEAD-luciferase reporter activity was inactive: -2.56 (compound concentration: 200 nM), inactive: -0.754 (compound concentration: 2 uM) and inactive: -0.708 (compound concentration: 10 uM).

For the compound `CC(C)(C)NCC(O)COc1cccc2nc(O)[nH]c12` (single isomer, unassigned; (-)), the TEAD-luciferase reporter activity is inactive: -2.26 (compound concentration: 200 nM), inactive: -0.721 (compound concentration: 2 uM) and inactive: -1.43 (compound concentration: 10 uM).

With `CC(=O)NCCC(=O)N1Cc2ccccc2CC2(CCCCN2CC2CCNCC2)C1` (configuration not stated), the TEAD-luciferase reporter activity was inactive: 0.186 (compound concentration: 200 nM) and inactive: -0.0624 (compound concentration: 10 uM).

Regarding `O=C(O)c1cn(C2CC2)c2c(Cl)c(N3C[C@@H]4CCCN[C@@H]4C3)c(F)cc2c1=O`, the TEAD-luciferase reporter activity is, setting by setting: (compound concentration: 200 nM) inactive: 1.8; (compound concentration: 2 uM) inactive: 0.304; (compound concentration: 10 uM) inactive: -0.51.

In the case of `CN(C)CCC(O)(P(=O)(O)O)P(=O)(O)O` [olpadronic acid], the TEAD-luciferase reporter activity runs as follows: (compound concentration: 200 nM) inactive: 0.0336; (compound concentration: 2 uM) inactive: 0.162; (compound concentration: 10 uM) inactive: 2.12.

Regarding `CSC(=O)[C@@]1(O)[C@@H](C)C[C@H]2[C@@H]3CCC4=CC(=O)C=C[C@]4(C)[C@@]3(F)[C@@H](O)C[C@@]21C` [timobesone], the TEAD-luciferase reporter activity (compound concentration: 200 nM) is inactive: -1.12, the TEAD-luciferase reporter activity (compound concentration: 2 uM) was inactive: 1.95 and the TEAD-luciferase reporter activity (compound concentration: 10 uM) is inactive: -0.385.

As to `CN1CCC[C@@H]1Cc1c[nH]c2ccc(CCS(=O)(=O)c3ccccc3)cc12` [Eletriptan Hydrobromide], the TEAD-luciferase reporter activity was inactive: -0.328 (compound concentration: 200 nM), inactive: -0.896 (compound concentration: 2 uM) and inactive: -0.329 (compound concentration: 10 uM).

On to `COc1cc(N)c(Cl)cc1C(=O)NC1CCN2C(C)CCCC2C1` (configuration not stated), for which the TEAD-luciferase reporter activity by setting is: (compound concentration: 200 nM) inactive: -1.1; (compound concentration: 2 uM) inactive: -0.664; (compound concentration: 10 uM) inactive: -0.144.

Take `Cc1cc(C)nc(N2CCN(c3ccc(NC(=O)C(=O)c4c(-c5ccccc5)cc(C)n4C)cc3)CC2)c1`: the TEAD-luciferase reporter activity is, setting by setting: (compound concentration: 200 nM) inactive: 0.439; (compound concentration: 2 uM) inactive: -1.55; (compound concentration: 10 uM) inactive: -0.711.

`CCNCCCCNCCCCNCCCCNCC`: the TEAD-luciferase reporter activity was inactive: 0.534 (compound concentration: 200 nM), inactive: 0.581 (compound concentration: 2 uM) and inactive: 2.03 (compound concentration: 10 uM).

For `COC(=O)NCCc1ccc(OCC(O)CNC(C)C)cc1` (configuration not stated) [Pamatolol sulfate], the TEAD-luciferase reporter activity (compound concentration: 200 nM) was inactive: -1.34, the TEAD-luciferase reporter activity (compound concentration: 2 uM) is inactive: -0.482 and the TEAD-luciferase reporter activity (compound concentration: 10 uM) is inactive: 0.944.

For the compound `Cc1nc(OCCCCCN2CCCCC2)cc(-c2ccc(F)cc2)n1` [enecadin], the TEAD-luciferase reporter activity was inactive: 0.0951 (compound concentration: 200 nM), inactive: 3.6 (compound concentration: 2 uM) and inactive: -0.183 (compound concentration: 10 uM).

For `Cc1nc(OCCCCCN2CCCCC2)cc(-c2ccc(F)cc2)n1`, the TEAD-luciferase reporter activity (compound concentration: 2 uM) was inactive: -1.6.

Consider `C=CC[C@H](C(=O)NO)[C@@H](CC(C)C)C(=O)N[C@@H](Cc1ccccc1)C(=O)NC`, for which the TEAD-luciferase reporter activity reads like this: (compound concentration: 200 nM) inactive: -1.16; (compound concentration: 2 uM) inactive: -1.11; (compound concentration: 10 uM) inactive: -1.25.

Take `CN1CCN(C(=O)c2ccc(CN3CCOCC3)cc2)CC1`: the TEAD-luciferase reporter activity by setting is: (compound concentration: 200 nM) inactive: -0.651; (compound concentration: 2 uM) inactive: -0.707; (compound concentration: 10 uM) inactive: 3.15.

Take `CC(C)(C)c1nc(-c2cccc(NS(=O)(=O)c3c(F)cccc3F)c2F)c(-c2ccnc(N)n2)s1` [Dabrafenib mesylate]: the TEAD-luciferase reporter activity runs as follows: (compound concentration: 200 nM) inactive: -0.864; (compound concentration: 2 uM) inactive: -1.49; (compound concentration: 10 uM) inactive: 0.242.

Regarding `CNC(=O)c1cc2c(Oc3ccc(NC(=S)NC(=O)Cc4ccccc4)cc3F)ccnc2cc1OC`, the TEAD-luciferase reporter activity (compound concentration: 200 nM) is inactive: 0.0101, the TEAD-luciferase reporter activity (compound concentration: 2 uM) was inactive: -2.05 and the TEAD-luciferase reporter activity (compound concentration: 10 uM) was inactive: 0.585.

With `CCCC(=O)Nc1ccc(Cc2ccccn2)c([N+](=O)[O-])c1`, the TEAD-luciferase reporter activity (compound concentration: 200 nM) was inactive: 0.349, the TEAD-luciferase reporter activity (compound concentration: 2 uM) is inactive: -0.915 and the TEAD-luciferase reporter activity (compound concentration: 10 uM) was inactive: 1.05.

As to `O=C(CO)N1CCC(c2n[nH]c(-c3ccc(Cl)cc3)c2-c2ccncn2)CC1`, the TEAD-luciferase reporter activity by setting is: (compound concentration: 200 nM) inactive: -2.16; (compound concentration: 2 uM) inactive: -0.555; (compound concentration: 10 uM) inactive: 0.949.
